Test results taken from patent US9446087B2, “Anti-resorptive and bone building dietary supplements and methods of use” (priority 2006, dated 2016).
Marks after values point to notes of the source that are not given here.

Test system: ovariectomized (OVX) rat model
Experiment: In vivo ovariectomized (OVX) rat study - DEXA measurements
Conditions: OVX rats, 35 days, positive control 0.5 mg/day; vs placebo group
Experimental: Two different formulas were tested in an in vivo study involving female, […] rats, aged approximately 12-14 weeks, with approximate body weights between 200-250 grams. Formula 2 included varying dosages of pomegranate extract and grape seed extract and a fixed dosage of ipriflavone as reported in Table 18. Three dosages were tested for each formula. The study utilized 8 groups of rats, with 15 rats in each group and lasted approximately 35 days.
Table 18 below indicates the formula given to each of the 8 test groups. The dosages in Table 18 are based on the recommended human dosages and were converted to the appropriate corresponding rat dose using the FDA conversion formula: Human equivalent dose (HED, mg/kg)=rat dose in mg/kg×(rat weight in kg/human weight in kg)^0.33 HED=rat NOAEL×(W-rat/W-human)^(1-b), b=0.67. […]
The effectiveness of the formulas on antiresorption was assessed by outcome measurements that included DEXA scan (to determine bone mineral density), biomechanical measurement (to gather bone strength and functional information), micro-CT measurement (to assess virtual bone quality and functional information), and histomorphology measurement (to assess bone quality and functional information). […] These measurements were determined after 35 days of treatment.

NCCCC(O)(P(=O)(O)O)P(=O)(O)O [Alendronate]
Bone Mineral Density (DEXA): 35%^a
